Source: PMC7141810, “UBP12 and UBP13 negatively regulate the activity of the ubiquitin-dependent peptidases DA1, DAR1 and DAR2” (eLife, 2020)
No constants are given. Whether binding was seen depends on the method and setting. Where a sequence is shown, tags or fusion partners need not be part of it.

B1: HIS-MBP-DA1 (natural protein, Arabidopsis thaliana, UniProt P0C7Q8 1-532, looked up)
chain: MGWFNKIFKGSNQRLRVGNNKHNHNVYYDNYPTASHDDEPSAADTDADNDEPHHTQEPSTSEDNTSNDQENEDIDRAIALSLLEENQEQTSISGKYSMPVDEDEQLARALQESMVVGNSPRHKSGSTYDNGNAYGAGDLYGNGHMYGGGNVYANGDIYYPRPITFQMDFRICAGCNMEIGHGRFLNCLNSLWHPECFRCYGCSQPISEYEFSTSGNYPFHKACYRERYHPKCDVCSHFIPTNHAGLIEYRAHPFWVQKYCPSHEHDATPRCCSCERMEPRNTRYVELNDGRKLCLECLDSAVMDTMQCQPLYLQIQNFYEGLNMKVEQEVPLLLVERQALNEAREGEKNGHYHMPETRGLCLSEEQTVSTVRKRSKHGTGKWAGNITEPYKLTRQCEVTAILILFGLPRLLTGSILAHEMMHAWMRLKGFRTLSQDVEEGICQVMAHKWLDAELAAGSTNSNAASSSSSSQGLKKGPRSQYERKLGEFFKHQIESDASPVYGDGFRAGRLAVHKYGLRKTLEHIQMTGRFPV
notes: DA1, Arabidopsis thaliana, AT1G19270; source: E. coli BL21 (DE3), purified (NI-NTA agarose beads)
B2: HIS-MBP-DAR1 (natural protein, Arabidopsis thaliana, UniProt Q8W4F0 1-553, looked up)
chain: MGWLTKILKGSSHKFSDGQCNGRYREDRNLEGPRYSAEGSDFDKEEIECAIALSLSEQEHVIPQDDKGKKIIEYKSETEEDDDDDEDEDEEYMRAQLEAAEEEERRVAQAQIEEEEKRRAEAQLEETEKLLAKARLEEEEMRRSKAQLEEDELLAKALQESMNVGSPPRYDPGNILQPYPFLIPSSHRICVGCQAEIGHGRFLSCMGGVWHPECFCCNACDKPIIDYEFSMSGNRPYHKLCYKEQHHPKCDVCHNFIPTNPAGLIEYRAHPFWMQKYCPSHERDGTPRCCSCERMEPKDTKYLILDDGRKLCLECLDSAIMDTHECQPLYLEIREFYEGLHMKVEQQIPMLLVERSALNEAMEGEKHGHHHLPETRGLCLSEEQTVTTVLRRPRIGAGYKLIDMITEPCRLIRRCEVTAILILYGLPRLLTGSILAHEMMHAWLRLNGYPNLRPEVEEGICQVLAHMWLESETYAGSTLVDIASSSSSAVVSASSKKGERSDFEKKLGEFFKHQIESDSSSAYGDGFRQGNQAVLKHGLRRTLDHIRLTGTFP
notes: DAR1, Arabidopsis thaliana, AT4G36860; source: E. coli BL21 (DE3), purified (NI-NTA agarose beads)
B3: HIS-MBP-DAR2 (natural protein, Arabidopsis thaliana, UniProt Q0WSN2 1-528, looked up)
chain: MDSSSSSSSSSPSSSYGVARVSHISNPCIFGEVGSSSSSTYRDKKWKLMKWVSKLFKSGSNGGGSGAHTNHHPPQFQEDENMVFPLPPSSLDDRSRGARDKEELDRSISLSLADNTKRPHGYGWSMDNNRDFPRPFHGGLNPSSFIPPYEPSYQYRRRQRICGGCNSDIGSGNYLGCMGTFFHPECFRCHSCGYAITEHEFSLSGTKPYHKLCFKELTHPKCEVCHHFIPTNDAGLIEYRCHPFWNQKYCPSHEYDKTARCCSCERLESWDVRYYTLEDGRSLCLECMETAITDTGECQPLYHAIRDYYEGMYMKLDQQIPMLLVQREALNDAIVGEKNGYHHMPETRGLCLSEEQTVTSVLRRPRLGAHRLVGMRTQPQRLTRKCEVTAILVLYGLPRLLTGAILAHELMHGWLRLNGFRNLNPEVEEGICQVLSYMWLESEVLSDPSTRNLPSTSSVATSSSSSFSNKKGGKSNVEKKLGEFFKHQIAHDASPAYGGGFRAANAAACKYGLRRTLDHIRLTGTFPL
notes: DAR2, Arabidopsis thaliana, AT2G39830; source: E. coli BL21 (DE3), purified (NI-NTA agarose beads)

Target: free GST
Assay: pull-down; in vitro; equal amounts of free GST, GST-UBP12 or GST-UBP13 as baits incubated with HIS-MBP-DA1, -DAR1 or -DAR2; purification with anti-GST beads; Western blot; both purified

Binder | binding
B1 | no binding
B2 | no binding
B3 | no binding
